Experimental data taken from PubChem BioAssay AID248 (DTP/NCI, 2004).
The list does not hold the whole screen: it is rich in T/C values a quarter to a half above the control, in often repeated tests (any T/C) and in doses without a T/C. Other doses and runs of a compound stand elsewhere. T/C is the treated group as % of the vehicle group. Some entries give survivors of the animals treated and no T/C: the source holds a T/C of zero for them, seemingly a mark for toxic or unscored doses. Some survivor counts are full or nearly so, which does not show that the dose was tolerated: the source hardly ever lists a survival T/C far under the control, and the zero likely stands for such cases as well. Survivors were counted at the toxicity check, usually on the fifth day, unless a day is given; later deaths do not show. Schedules are NCI's codes, read here as Q, the interval in days (D) or hours (H), X, the number of doses. Additions like (4×) count equal records among those shown. Some schedules carry Z or #; the key to these is not given. Where survival is the endpoint, this PubChem deposit counts one and a half times the control or more as active, and values a quarter to a half above the control carry no call in these data; other NCI protocols may use other cut-offs. Some T/C values carry the count of animals alive at the toxicity check (mostly the fifth day); without a count, all were alive then.

Test system: L1210 leukemia ip in BDF1 mice, survival T/C
Test: NCI In Vivo Anticancer Drug Screen. Data for tumor model L1210 Leukemia (intraperitoneal) in B6D2F1 (BDF1) mice
Settings: T/C endpoint: mean survival time, higher T/C = longer survival
[1] = dose: 100.0 mg/kg/injection, schedule: Q04DX002 (ip), vehicle: Klucel (hydroxypropylcellulose) (HPC)
[2] = dose: 200.0 mg/kg/injection, schedule: Q04DX002 (ip), vehicle: Klucel (hydroxypropylcellulose) (HPC)
[3] = dose: 300.0 mg/kg/injection, schedule: Q01DX001 (ip), vehicle: saline
[4] = dose: 400.0 mg/kg/injection, schedule: Q04DX002 (ip), vehicle: Klucel (hydroxypropylcellulose) (HPC)
[5] = dose: 400.0 mg/kg/injection, schedule: Q01DX009 (ip), vehicle: saline with Tween-80
[6] = dose: 400.0 mg/kg/injection, schedule: Q01DX009 (ip), vehicle: Klucel (hydroxypropylcellulose) (HPC)
[7] = dose: 400.0 mg/kg/injection, schedule: Q04DX003 (ip), vehicle: saline
[8] = dose: 25.0 mg/kg/injection, schedule: Q04DX003 (ip), vehicle: saline with Tween-80
[9] = dose: 50.0 mg/kg/injection, schedule: Q01DX009 (ip), vehicle: saline with Tween-80
[10] = dose: 50.0 mg/kg/injection, schedule: Q04DX003 (ip), vehicle: saline with Tween-80
[11] = dose: 100.0 mg/kg/injection, schedule: Q04DX003 (ip), vehicle: saline with Tween-80
[12] = dose: 200.0 mg/kg/injection, schedule: Q01DX001 (ip), vehicle: saline
[13] = dose: 200.0 mg/kg/injection, schedule: Q04DX003 (ip), vehicle: saline with Tween-80
[14] = dose: 400.0 mg/kg/injection, schedule: Q01DX001 (ip), vehicle: saline
[15] = dose: 400.0 mg/kg/injection, schedule: Q04DX003 (ip), vehicle: Klucel (hydroxypropylcellulose) (HPC)
[16] = dose: 400.0 mg/kg/injection, schedule: Q04DX003 (ip), vehicle: saline with Tween-80
[17] = dose: 100.0 mg/kg/injection, schedule: Q01DX001 (ip), vehicle: saline
[18] = dose: 80.0 mg/kg/injection, schedule: Q01DX001 (ip), vehicle: saline

S=C=Nc1cccc(Cl)c1
survivor count [1]: 1 of 3
survivor count [2]: 0 of 3
survivor count [3]: 0 of 6
survivor count [4]: 0 of 3

CN(C)/C(N)=N/N
survivor count (dose: 125.0 mg/kg/injection, schedule: Q01DX Z (oral), vehicle: methylcellulose (MC)): 3 of 6
survivor count (dose: 250.0 mg/kg/injection, schedule: Q01DX Z (oral), vehicle: methylcellulose (MC)): 3 of 6
survivor count (dose: 500.0 mg/kg/injection, schedule: Q01DX Z (oral), vehicle: methylcellulose (MC)): 2 of 6
survivor count (dose: 1000.0 mg/kg/injection, schedule: Q01DX Z (oral), vehicle: methylcellulose (MC)): 2 of 6

CN(CCO)Cc1ccc2ccccc2c1
survivor count (dose: 300.0 mg/kg/injection, schedule: Q01DX015 (ip), vehicle: saline): 1 of 6

CCN(CC)C(=O)Oc1ccc(OC)cc1
survivor count [5]: 6 of 6

Cc1nc(N)[nH]c(=O)c1/C=C\C(=O)c1ccccc1
survivor count (dose: 50.0 mg/kg/injection, schedule: Q01DX001 (ip), vehicle: carboxymethylcellulose (CMC)): 4 of 4

ONc1ccc(Cl)cc1
survivor count (dose: 25.0 mg/kg/injection, schedule: Q01DX009 (ip), vehicle: gum acacia): 6 of 6
survivor count (dose: 50.0 mg/kg/injection, schedule: Q04DX003 (ip), vehicle: gum acacia): 0 of 6
survivor count (dose: 100.0 mg/kg/injection, schedule: Q01DX001 (ip), vehicle: gum acacia): 0 of 6
survivor count (dose: 200.0 mg/kg/injection, schedule: Q01DX001 (ip), vehicle: gum acacia): 0 of 6
survivor count (dose: 400.0 mg/kg/injection, schedule: Q01DX001 (ip), vehicle: gum acacia): 0 of 6

CC(=O)OC1CCC2(C)C(C)CC3C(=O)OC32C1 (configuration not stated)
survivor count (dose: 400.0 mg/kg/injection, schedule: Q04DX003 (ip), vehicle: acetone): 5 of 6

CN(C)c1ccc(/C=N/NC(=O)C2CCCO2)c(Cl)c1 (configuration not stated)
survivor count [6]: 0 of 6

N=C(N)c1ccc(-c2cc3ccc(C(=N)N)cc3s2)cc1
survivor count (dose: 100.0 mg/kg/injection, schedule: Q04DX003 (ip), vehicle: saline): 2 of 4
survivor count (dose: 200.0 mg/kg/injection, schedule: Q04DX003 (ip), vehicle: saline): 0 of 4
survivor count [7]: 0 of 4

CCCCCCCCCCCCCCCCNC(=S)NCCCCCCCCCCCCCCCC
survivor count [1]: 3 of 3
survivor count [2]: 3 of 3
survivor count [4]: 3 of 3

CCOC(O)(C(F)(F)F)C(F)(F)F
survivor count [8]: 6 of 6
survivor count [9]: 0 of 6
survivor count [10]: 0 of 6
survivor count [11]: 5 of 6
survivor count [12]: 2 of 4
survivor count [13]: 0 of 6
survivor count [14]: 0 of 4

Nc1cccc(Cl)c1
survivor count [15]: 2 of 6

O=C(N/N=C(\C=N\NC(=O)c1ccccc1)CC(O)CO)c1ccccc1 (configuration not stated)
survivor count [16]: 4 of 6

O=[As](O)(CC(O)c1ccccc1)c1cccc(Cl)c1 (configuration not stated)
survivor count [8]: 6 of 6
survivor count [10]: 2 of 6
survivor count [11]: 0 of 6 (2×)
survivor count [13]: 0 of 6
survivor count [16]: 0 of 6

COc1ccc(CC(N)C(=O)OCc2ccccc2)cc1N(CCCl)CCCl (configuration not stated)
T/C (dose: 0.15 mg/kg/injection, schedule: Q01DX009 (ip), vehicle: saline): 127 % of control
T/C (dose: 0.3 mg/kg/injection, schedule: Q01DX009 (ip), vehicle: saline): 129 % of control
T/C (dose: 0.7 mg/kg/injection, schedule: Q01DX009 (ip), vehicle: saline): 126 % of control
T/C (dose: 0.75 mg/kg/injection, schedule: Q01DX009 (ip), vehicle: saline): 137 % of control
T/C (dose: 1.5 mg/kg/injection, schedule: Q01DX009 (ip), vehicle: saline): 131 % of control
T/C (dose: 3.0 mg/kg/injection, schedule: Q01DX001 (ip), vehicle: saline): 125 % of control
T/C (dose: 3.0 mg/kg/injection, schedule: Q01DX009 (ip), vehicle: saline): 137 % of control
T/C (dose: 6.0 mg/kg/injection, schedule: Q01DX001 (ip), vehicle: saline): 136 % of control
survivor count (dose: 25.0 mg/kg/injection, schedule: Q01DX001 (ip), vehicle: saline): 6 of 6
survivor count (dose: 50.0 mg/kg/injection, schedule: Q01DX001 (ip), vehicle: saline): 0 of 6
survivor count [17]: 0 of 6
survivor count [12]: 0 of 6
survivor count [14]: 0 of 6

COc1cc([N+](=O)[O-])ccc1NC(=O)Nc1cc(C)ccn1
survivor count [6]: 4 of 6

ClC1=c2ccccc2=C2C(Cl)=c3ccccc3=C12
survivor count [2]: 2 of 3

O=[N+]([O-])c1cc(C(F)(F)F)ccc1Cl
survivor count (dose: 400.0 mg/kg/injection, schedule: Q01DX009 (ip), vehicle: saline): 3 of 6

NC(Cc1c[nH]c2cc(N(CCCl)CCCl)ccc12)C(=O)O (configuration not stated)
T/C (dose: 1.0 mg/kg/injection, schedule: Q01DX Z (ip), vehicle: other): 126 % of control
T/C (dose: 250.0 micrograms/kg/injection, schedule: Q01DX009 (ip), vehicle: carboxymethylcellulose (CMC)): 137 % of control

C=C(S(=O)(=O)c1ccccc1)S(=O)(=O)c1ccccc1 (tested in a mixture with another compound)
survivor count [1]: 0 of 3
survivor count [4]: 0 of 3

CCCC(O)c1ccc(OC)c(OC)c1 (configuration not stated)
survivor count [4]: 1 of 3

NNc1ccc(Br)cc1
survivor count [4]: 1 of 3

CCC(=O)C(c1ccccc1)(c1ccccc1)C(C)CN(C)C (configuration not stated)
survivor count [18]: 0 of 6
survivor count [17]: 2 of 6
survivor count [12]: 0 of 6
survivor count [14]: 0 of 6

OC(C[n+]1ccccc1)c1c[nH]c2ccccc12 (configuration not stated)
survivor count (dose: 150.0 mg/kg/injection, schedule: Q01DX001 (ip), vehicle: other): 3 of 6
survivor count (dose: 300.0 mg/kg/injection, schedule: Q01DX001 (ip), vehicle: other): 0 of 6

COc1cc2c(cc1OC(C)=O)C(OC(C)=O)CCCC2 (configuration not stated)
survivor count [18]: 2 of 4
survivor count [17]: 1 of 4
survivor count [12]: 1 of 4
survivor count [14]: 1 of 4

O=C1NC(c2ccccc2)(c2ccccc2)C(=O)N1CCN(CCCl)CCCl
survivor count [9]: 5 of 6
survivor count (dose: 200.0 mg/kg/injection, schedule: Q01DX009 (ip), vehicle: saline with Tween-80): 5 of 6
T/C [13]: 125 % of control
survivor count [13]: 6 of 6
survivor count [5]: 0 of 6
T/C [16]: 134 % of control [4 of 6 alive]
survivor count [16]: 5 of 6

CN1CCC2CCC(C1)N2C (configuration not stated)
survivor count [3]: 1 of 6

O=[N+]([O-])c1ccc2ncccc2c1
survivor count [15]: 0 of 6

O=Cc1cc([N+](=O)[O-])cc(CCl)c1O
survivor count (dose: 200.0 mg/kg/injection, schedule: Q01DX009 (ip), vehicle: Klucel (hydroxypropylcellulose) (HPC)): 5 of 6
survivor count [6]: 0 of 6

CCOC(=O)c1c[nH]n2c(=S)ncnc12
survivor count [5]: 3 of 6

O=C(C(F)F)C(F)F
survivor count (dose: 200.0 mg/kg/injection, schedule: Q01DX009 (ip), vehicle: saline): 0 of 6
survivor count [7]: 0 of 6

COC(=O)/C=C\C(=O)O (tested in a mixture with another compound)
survivor count (dose: 62.5 mg/kg/injection, schedule: Q#A X Z (ip), vehicle: carboxymethylcellulose (CMC)): 1 of 6
survivor count (dose: 125.0 mg/kg/injection, schedule: Q#A X Z (ip), vehicle: carboxymethylcellulose (CMC)): 0 of 6
survivor count (dose: 250.0 mg/kg/injection, schedule: Q#A X Z (ip), vehicle: carboxymethylcellulose (CMC)): 0 of 6
